The list shows a part of the results. The main result of the screen is listed elsewhere. These columns were measured beside it and carry no call. Most of these compounds were active or inconclusive in the main read-out, so they are no random draw. The note in brackets gives the kind of curve behind each potency; many fits are weak.
Assay: qHTS Assay for Lipid Storage Modulators in Drosophila S3 Cells;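 on cell number change: cells counted by Cell Tracker Red CMTPX staining in the red channel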
Settings: BODIPY lipid droplet fluorescence, 18-24 h; for cell number change: measured here: cell count max response, cells fed with added oleic acid
In short: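 Laser-scanning cytometry quantifies lipid droplet accumulation (500–530 nm total intensity; droplet/cell object ratio) in oleic acid-fed (400 uM added) Drosophila S3 cells treated with a concentration series. 20 uM Triacsin C defined 100% inhibition.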

[1] = measured here: lipid fluorescence (Fed channel) AC50, cells fed with added oleic acid
[2] = measured here: cell number channel AC50, cells fed with added oleic acid

SMILES | cell number change [%] | AC50 [1] | AC50 [2]
CCC(=O)NC(Nc1sc2c(c1C(=O)OC)CCCC2)(C(F)(F)F)C(F)(F)F | -29.7 | 29.1 µM [falling, single point] | –
CCOC(=O)c1oc2cc(O)ccc2c(=O)c1-c1csc(C)n1 | -8.38 | – | 3.26 µM [falling, single point]
Cc1ccc2c(c1)C(=O)OC1(O)C3C4C=CC(C4)C3C(=O)N21 (centres undefined) | 6.45 | – | –
Cc1occc1C(=O)NCCCCNC(=O)c1ccoc1C | 18.5 | – | –
CC1(c2ccccc2)NC(=O)N(N)C1=O (centres undefined) | -15.2 | – | 6.51 µM [rising, partial curve, poor fit]
O=C(COc1ccc2ccccc2c1)NNC(=O)Cc1cccc2ccccc12 | -10.7 | 2.91 µM [rising, single point] | 0.00461 µM [falling, full curve, poor fit]
O=C(C#Cc1cccc([N+](=O)[O-])c1)c1ccccc1 | -32.3 | 0.58 µM [falling, single point] | 0.13 µM [falling, full curve, poor fit]
O=c1[nH]c2cc3c(cc2cc1CN(Cc1nnnn1CC1CCCO1)C1CCCCC1)OCO3 (centres undefined) | 24.6 | – | –
O=C(/C=C/c1c(Cl)nc2ccccn12)N1CCN(c2ccc(F)cc2)CC1 | – | 0.116 µM [rising, partial curve, poor fit] | –
CC(=O)Nc1ccc(S(=O)(=O)Oc2ccc(C(=S)N3CCCCC3)cc2)cc1 | – | 0.00517 µM [falling, full curve, poor fit] | –
Cc1cccc(CC(=O)Nc2cc(C)c3c(=O)oc4ccccc4c3n2)c1 | – | 0.58 µM [rising, single point] | –
CCc1cc2cccc(C)c2nc1SCC(=O)c1ccc(NC(C)=O)cc1 | 15.2 | 0.231 µM [rising, full curve] | –
COc1ccc(C2CCCN2C(=S)Nc2ccc(C)cc2Cl)cc1OC (centres undefined) | 35.8 | 32.6 µM [rising, single point] | 16.4 µM [rising, single point]
CN(C)c1ccc(/C=C/C(=O)c2ccc(C(C)(C)C)cc2)cc1[N+](=O)[O-] | -60.5 | – | 18.4 µM [falling, single point]
Cc1cc(C)c(OCC(=O)OCC(=O)N2CCCc3ccccc32)c(C)c1 | – | 10.3 µM [rising, partial curve] | 6.51 µM [falling, single point]
CC(C)NC(=O)COC(=O)c1ccc(Cl)c(S(=O)(=O)N2CCCC2)c1 | -51.7 | 25.9 µM [falling, partial curve] | 2.59 µM [falling, partial curve, poor fit]
C=CCn1c(SCC(=O)Nc2ccc3c(c2)CCC3)nc2ccccc2c1=O | -8.87 | 23.1 µM [falling, single point] | –
CC(=O)Nc1ccc2c(c1)ncn2-c1ccc(C)cc1 | -10.9 | 6.51 µM [falling, single point] | 6.51 µM [falling, single point]
Cc1ccc(S(=O)(=O)N2CCOCC2)cc1C(=O)Nc1ccccc1F | 2.76 | 29.1 µM [rising, single point] | –
COc1ccc(Cl)cc1NC(=O)CN(C)C(=O)c1ccc(N2CCCCCC2)c([N+](=O)[O-])c1 | -30.1 | – | 2.06 µM [falling, full curve, poor fit]
COCCNc1nc2c(c(=O)n(C)c(=O)n2C)n1Cc1cccc(C(F)(F)F)c1 | -112 | 29.1 µM [falling, single point] | 6.51 µM [rising, single point]
CCOC(=O)c1c(C)oc2c1c(CN1CCN(CCO)CC1)c(O)c1ccccc12 | -34.7 | 18.4 µM [falling, single point] | 18.4 µM [falling, single point]
CN(C)CCCNc1cn[nH]c(=O)c1Cl | -23 | 18.4 µM [falling, partial curve] | 0.651 µM [falling, full curve, poor fit]
Cc1ccc(CCN2C(=O)CCC2(C)C(=O)NCc2cccnc2)cc1 (centres undefined) | 1.19 | 0.651 µM [falling, partial curve, poor fit] | –
CCOC(=O)N1CCC(N2C(=O)c3ccccc3C2Nc2cc(C(=O)OC)cc(C(=O)OC)c2)CC1 (centres undefined) | 4.24 | – | –
Cc1nc2scc(C)n2c(=O)c1S(=O)(=O)N1CCN(c2ccc([N+](=O)[O-])cc2)CC1 | 15.8 | – | –
CCOCC(=O)Nc1ccccc1C(=O)O | -18.3 | 32.6 µM [falling, single point] | –
CC(=O)C1=C(O)C(=O)N(c2nccs2)C1c1ccccc1 (centres undefined) | – | 0.366 µM [falling, full curve] | –

SMILES | cell number change [%] | AC50 [1] | AC50 [2]
CC(=O)c1ccc(OC(=O)CN2C(=O)c3ccccc3C2=O)cc1 | 13.1 | 0.116 µM [rising, full curve, poor fit] | –
CCCCc1ccc(/C=C(\C#N)C(N)=S)s1 | -30.8 | 14.6 µM [falling, partial curve, poor fit] | 20.6 µM [falling, single point]
COCCn1c(=N)c(S(=O)(=O)c2ccc(F)cc2)cc2c(=O)n3cccc(C)c3nc21 | -16.7 | – | 5.17 µM [falling, partial curve]
N#Cc1ccccc1NC(=O)C(=O)NCCc1csc(-c2ccc(F)cc2)n1 | -31.3 | – | 8.2 µM [falling, partial curve]
COCCN(C(=O)CSc1nncn1-c1ccccc1)c1c(N)n(Cc2ccccc2)c(=O)[nH]c1=O | -44.2 | 29.1 µM [falling, partial curve, poor fit] | 0.461 µM [falling, full curve]
CC1=C(C(=O)OC(C)C)C(c2ccccc2Cl)CC(=O)N1 (centres undefined) | -36.6 | 25.9 µM [falling, partial curve, poor fit] | 8.2 µM [falling, partial curve]
c1ccc(OCCOc2ccccc2-c2nnco2)cc1 | -8.01 | 0.326 µM [rising, partial curve, poor fit] | –
O=C(O)c1cc(Sc2ccc(Br)cc2)nc2ccccc12 | 50.8 | 6.51 µM [rising, full curve] | 6.51 µM [rising, full curve, poor fit]
COc1cc(CC(=O)Nc2ccc(Cl)c(C(F)(F)F)c2)cc(OC)c1OC | 28.3 | 7.31 µM [rising, partial curve] | –
CCNC(=O)CC1C(=O)N(c2ccc(C)cc2)C(=O)N1CCC(C)C (centres undefined) | -8.11 | 6.51 µM [falling, partial curve] | –
CC(C)(C)N(NC(=O)c1ccccc1)C(=O)c1ccc(C(=O)N(NC(=O)c2ccccc2)C(C)(C)C)cc1 | -13.9 | 0.58 µM [falling, partial curve, poor fit] | –
CCc1cc(C(=O)NNC(=S)NC2CCCCC2)cs1 | – | 0.58 µM [rising, single point] | –
COc1ccc(CNc2ccc3c(c2)nc(C)n3C)cc1OC | -0.276 | 2.31 µM [falling, partial curve] | –
CCOc1ccc2nc(NC(=O)c3ccc(OC)c(S(=O)(=O)N4CCOCC4)c3)sc2c1 | -70.4 | – | 23.1 µM [falling, single point]
CNC(=O)c1ccc(CN(C)CC(=O)Nc2ccccc2C(=O)NC2CC2)cc1 | -6.07 | 0.00517 µM [falling, full curve, poor fit] | 0.00731 µM [falling, full curve, poor fit]
O=C(CCCN1C(=O)/C(=C/c2cccs2)SC1=S)Nc1ccc(O)c(C(=O)O)c1 | 2.97 | 32.6 µM [rising, single point] | –
O=C(O)c1ccccc1SCc1nc2ccccn2c1Br | 14 | 6.51 µM [falling, single point] | 2.59 µM [falling, partial curve]
CCCc1nnc(NC(=O)CN2C(=O)c3ccccc3S2(=O)=O)s1 | -70.1 | – | 2.91 µM [falling, full curve]
COc1ccc(CCN(C)C(=O)CSc2nccn2C)cc1OC | – | 0.184 µM [rising, full curve] | –
Cc1ccc(NC(=S)N(CCCN2CCOCC2)Cc2cccnc2)cc1C | 10.9 | – | 6.51 µM [rising, single point]
CCOc1ccc(CCNC(=O)c2c(C)nn(-c3ccccc3)c2Cl)cc1OCC | 17.6 | 2.31 µM [rising, partial curve, poor fit] | 1.3 µM [rising, partial curve, poor fit]
COc1ccc(-c2csc(N(CCc3ccccc3)C(=O)COc3ccccc3)n2)cc1 | -36 | 25.9 µM [falling, partial curve, poor fit] | 0.58 µM [falling, full curve, poor fit]
Cc1ccccc1C(=O)N1CCC(C(=O)NC2CCCCCC2)CC1 | -5.13 | – | –
COc1ccc(CC(=O)N2CCN=C2SCc2cccc([N+](=O)[O-])c2)cc1 | 10.1 | – | –
CCc1cccc2[nH]c3cc([N+](=O)[O-])ccc3c12 | -31.9 | – | 10.3 µM [falling, single point]
C=C(C)CNC(=S)N/N=C/c1ccc([N+](=O)[O-])cc1 | 38.5 | 32.6 µM [rising, partial curve, poor fit] | 9.2 µM [rising, partial curve, poor fit]
COc1ccc(CC(NC(C)=O)C(=O)NC2CCN(C(=O)C3CC3)CC2)cc1OC (centres undefined) | 7.48 | 0.146 µM [falling, full curve, poor fit] | –

An excerpt of these results, as comma-separated lines:
SMILES,cell number change [%],AC50 [1],AC50 [2]
N#Cc1ccccc1NC(=O)C(=O)NCCc1csc(-c2ccc(F)cc2)n1,-31.3,–,"8.2 µM [falling, partial curve]"
COCCN(C(=O)CSc1nncn1-c1ccccc1)c1c(N)n(Cc2ccccc2)c(=O)[nH]c1=O,-44.2,"29.1 µM [falling, partial curve, poor fit]","0.461 µM [falling, full curve]"
CC1=C(C(=O)OC(C)C)C(c2ccccc2Cl)CC(=O)N1 (centres undefined),-36.6,"25.9 µM [falling, partial curve, poor fit]","8.2 µM [falling, partial curve]"
c1ccc(OCCOc2ccccc2-c2nnco2)cc1,-8.01,"0.326 µM [rising, partial curve, poor fit]",–
O=C(O)c1cc(Sc2ccc(Br)cc2)nc2ccccc12,50.8,"6.51 µM [rising, full curve]","6.51 µM [rising, full curve, poor fit]"
COc1cc(CC(=O)Nc2ccc(Cl)c(C(F)(F)F)c2)cc(OC)c1OC,28.3,"7.31 µM [rising, partial curve]",–
CCNC(=O)CC1C(=O)N(c2ccc(C)cc2)C(=O)N1CCC(C)C (centres undefined),-8.11,"6.51 µM [falling, partial curve]",–
CC(C)(C)N(NC(=O)c1ccccc1)C(=O)c1ccc(C(=O)N(NC(=O)c2ccccc2)C(C)(C)C)cc1,-13.9,"0.58 µM [falling, partial curve, poor fit]",–
CCc1cc(C(=O)NNC(=S)NC2CCCCC2)cs1,–,"0.58 µM [rising, single point]",–
COc1ccc(CNc2ccc3c(c2)nc(C)n3C)cc1OC,-0.276,"2.31 µM [falling, partial curve]",–
CCOc1ccc2nc(NC(=O)c3ccc(OC)c(S(=O)(=O)N4CCOCC4)c3)sc2c1,-70.4,–,"23.1 µM [falling, single point]"
CNC(=O)c1ccc(CN(C)CC(=O)Nc2ccccc2C(=O)NC2CC2)cc1,-6.07,"0.00517 µM [falling, full curve, poor fit]","0.00731 µM [falling, full curve, poor fit]"
O=C(CCCN1C(=O)/C(=C/c2cccs2)SC1=S)Nc1ccc(O)c(C(=O)O)c1,2.97,"32.6 µM [rising, single point]",–
O=C(O)c1ccccc1SCc1nc2ccccn2c1Br,14,"6.51 µM [falling, single point]","2.59 µM [falling, partial curve]"
CCCc1nnc(NC(=O)CN2C(=O)c3ccccc3S2(=O)=O)s1,-70.1,–,"2.91 µM [falling, full curve]"
COc1ccc(CCN(C)C(=O)CSc2nccn2C)cc1OC,–,"0.184 µM [rising, full curve]",–
Cc1ccc(NC(=S)N(CCCN2CCOCC2)Cc2cccnc2)cc1C,10.9,–,"6.51 µM [rising, single point]"

— PubChem BioAssay AID2685 (National Center for Advancing Translational Sciences (NCATS), 2010)
